Measured values published in PubChem BioAssay AID1671190 (National Center for Advancing Translational Sciences (NCATS), 2021).
Where “and” joins values, the source holds several entries; their conditions need not be identical. Identical values can stand only once. Screen size: about 580,000 compounds; about 6,100 (1.1%) were called active. This list was built around the results that the source calls inconclusive (neither active nor inactive); the mix of calls is not that of the screen. Calls follow the shape of the dose curve; as a rule, active = well fitted inhibition curve with a large enough effect; inconclusive = small, poorly fitted or top-dose-only effect, or another doubt; inactive = no such curve, though single readings can be large or run the other way. Potencies beside an inconclusive call are fits to weak or partial responses and may not hold up.

The chains behind the UniProt entries cited, without tags or fusion partners. Where a name states a change or a piece, a line headed by the entry shows the natural chain unless it says otherwise.
UniProt P18054: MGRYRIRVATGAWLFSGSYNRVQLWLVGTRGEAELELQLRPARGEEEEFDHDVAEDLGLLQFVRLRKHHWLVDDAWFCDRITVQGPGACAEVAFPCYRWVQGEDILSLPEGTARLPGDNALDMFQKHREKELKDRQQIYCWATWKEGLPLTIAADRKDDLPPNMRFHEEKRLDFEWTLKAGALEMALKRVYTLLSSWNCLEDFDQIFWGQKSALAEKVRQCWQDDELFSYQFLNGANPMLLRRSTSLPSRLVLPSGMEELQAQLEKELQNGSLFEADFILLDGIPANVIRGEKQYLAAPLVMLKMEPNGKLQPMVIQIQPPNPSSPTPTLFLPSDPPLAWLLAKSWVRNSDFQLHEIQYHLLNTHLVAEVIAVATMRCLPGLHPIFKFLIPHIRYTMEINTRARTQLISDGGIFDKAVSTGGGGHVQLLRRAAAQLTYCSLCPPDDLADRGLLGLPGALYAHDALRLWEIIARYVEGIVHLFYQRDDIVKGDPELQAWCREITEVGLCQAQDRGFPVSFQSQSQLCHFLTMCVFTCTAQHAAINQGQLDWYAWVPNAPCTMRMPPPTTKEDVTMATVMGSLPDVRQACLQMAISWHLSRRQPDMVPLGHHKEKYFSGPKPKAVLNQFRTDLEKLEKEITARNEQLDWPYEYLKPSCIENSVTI

Target: Polyunsaturated fatty acid lipoxygenase ALOX12 (Homo sapiens) (UniProt P18054)
Assay: Primary qHTS assay for inhibitors of human arachidonate 12S-lipoxygenase (ALOX12): Round 2
Conditions: purified 12hLO, xylenol orange hydroperoxide absorbance; activity change, negative = inhibition: at 108 µM (top of the series) unless noted
How it was run: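 Purified human 12hLO (150 nM final) in 25 mM Hepes, 0.01% Triton X-100, pH 7.0 was preincubated 15 min at room temperature with compound. Then 40 uM arachidonic acid was added, 30 min. Hydroperoxide was read by Fe-XO absorbance ratio 573/405 nm.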
% is scaled to controls: 0 for no effect and ±100 for the full control effect; potency is read from the fitted curve at half-maximal effect.

Row | SMILES | Potency | activity change, negative = inhibition
1 | Cc1ccc(F)c(S(=O)(=O)NC(=O)C2(C)CCN2C(=O)Cc2ccc(Cl)cc2Cl)c1 (stereo not given) | inconclusive: 89.1 µM [inhibitor, single point] | –
2 | Cc1ccc(S(=O)(=O)Nn2c(O)c(C=C3N=c4ccccc4=N3)sc2=S)cc1 | active: 35.5 µM | –
3 | CC(C)(C)c1cc(Cl)c(O)c(NC(=S)NC(=O)c2cccnc2)c1 | inconclusive: 28.2 µM [inhibitor, single point] | –
4 | COc1cc(NC(=O)C2CCN(S(=O)(=O)c3cccs3)CC2)c(C(=O)O)cc1OC | inconclusive: 100 µM [inhibitor, single point] | –
5 | COc1cccc(OC)c1C(=O)Nc1ccc2oc(-c3ccncc3)nc2c1 | – | inactive: -12.5%
6 | O=C(c1cccc2ccccc12)N(Cc1ccc2[nH]ccc2c1)C1CC1 | inconclusive: 79.4 µM [inhibitor, single point] | –
7 | COC(=O)c1c(NC(=O)CCl)sc(C(=O)N2CCOCC2)c1C | – | inactive: -10.1%
8 | Cc1cccc(-n2c(O)c(C=Nc3ccccc3)c3ccccc3c2=O)n1 | inconclusive: 50.1 µM [inhibitor, partial curve, poor fit] | –
9 | OCCC1CN(c2cc(C(F)(F)F)ccn2)CCN1CC1CCCCC1 (stereo not given) | – | inactive: 45%
10 | O=C(NC1CC1)c1ccc(CNc2nc3ccccc3o2)cc1 | – | inactive: -23.5%
11 | N#CC1=C(N)Oc2c(ccc3cccnc23)C1c1ccccc1 (stereo not given) | inconclusive: 35.5 µM [inhibitor, single point] | –
12 | O=C(Nc1nc(-c2ccc(-c3ccccc3)cc2)cs1)C1CCN(C(=O)c2ccoc2)CC1 | inconclusive: 0.224 µM [inhibitor, full curve, poor fit] | –
13 | Cc1nn(Cc2ccccc2)c(C)c1CNC(=O)c1cc(Cl)c2c(c1)OCCCO2 | – | inactive: 3.53%
14 | CC1(c2ccccc2)NC(=O)N(CC(=O)N2CC(=O)Nc3ccccc32)C1=O (stereo not given) | inconclusive: 14.1 µM [inhibitor, full curve] | –
15 | Cc1ccc(C)n1NC(=O)c1ccc(O)cc1 | inconclusive: 56.2 µM [inhibitor, partial curve, poor fit] | –
16 | CN(C(=O)Nc1ccc(Cl)cc1Cl)[C@H]1c2cc(Br)ccc2OC[C@H]1CO | – | inactive: -19.6%
17 | Cc1cccc(Oc2coc3cc(O)ccc3c2=O)c1 | inconclusive: 56.2 µM [inhibitor, partial curve, poor fit] | –
18 | CCC1CN(C(=O)NCc2ccc(F)cc2)c2cc(C)ccc2O1 (stereo not given) | inactive | –
19 | CNC(=O)N1CCC(C2CCN(C(=O)c3ccc(Cl)s3)C2)CC1 (stereo not given) | – | inactive: 28.4%
20 | O=C(Cc1n[nH]c(=O)c2ccccc12)NCC1(N2CCOCC2)CCCCC1 | – | inactive: 18.4%
21 | Cc1ccccc1N1CCN(C(=S)c2ccc(-c3cccc([N+](=O)[O-])c3)o2)CC1 | – | inactive: -18.5%
22 | O=C(C[n+]1ccccn1)c1ccccc1 | inconclusive: 25.1 µM [inhibitor, partial curve] | –
23 | CCOc1ccc(OCCCC(=O)N(C)CC(=O)Nc2ccc(N3CCOCC3)cc2)cc1 | – | inactive: -11.6%
24 | COC(=O)C1=C(C)N=C2SC=C(CC(=O)N3CCCC3)N2C1c1ccc(OC)cc1 (stereo not given) | – | inactive: 42.2%

Row | SMILES | Potency | activity change, negative = inhibition
25 | Cc1cnccc1N1CCCN(C(=O)c2cccc(C3CCCNC3)c2)CC1 (stereo not given) | – | inactive: -1.48%
26 | COc1cccc(C(c2sc3nc(-c4ccco4)nn3c2O)N2CCC(C)CC2)c1 (stereo not given) | inconclusive: 112 µM [inhibitor, partial curve, poor fit] | –
27 | Cc1ccc(C)c(N2CCN(C(c3ccncc3)c3nnnn3Cc3ccccc3)CC2)c1 (stereo not given) | inconclusive: 1.58 µM [inhibitor, full curve, poor fit] | –
28 | COc1cccc(CN2CCN(Cc3cc(OC)c(O)c(OC)c3)CC2)c1 | inconclusive: 0.562 µM [inhibitor, full curve] | –
29 | O=C(CCc1c[nH]c2ccccc12)NCCc1ccc(Cl)cc1 | – | inactive: -14.3%
30 | CCCCn1c(CCn2nc(C)c(Br)c2C)n[nH]c1=S | inconclusive: 39.8 µM [inhibitor, partial curve, poor fit] | –
31 | COC(=O)C1=C(C)N(C)C(=NCc2cccc(C(F)(F)F)c2)NC1c1ccccc1C(F)(F)F (stereo not given) | inconclusive: 50.1 µM [inhibitor, partial curve, poor fit] | –
32 | O=C(CSc1ccc(S(=O)(=O)N2CCOCC2)cn1)Nc1ccc(OC(F)F)cc1 | – | inactive: 207%
33 | CCCCn1cc2c(c1-c1ccc(Br)cc1)c(=O)n(C)c(=O)n2C | inconclusive: 50.1 µM [inhibitor, partial curve, poor fit] and inconclusive: 70.8 µM [inhibitor, partial curve, poor fit] | –
34 | CCc1cccc(NC(=O)C2CCCN(c3ncnc4c3nc3n4CCCCC3)C2)c1 (stereo not given) | – | inactive: -7.62%
35 | Cc1cccc(NC(=S)N2CCC(C(=O)c3ccc(F)cc3)CC2)c1 | inconclusive: 39.8 µM [inhibitor, partial curve, poor fit] | –
36 | O=C(O)C1=NOC2CN([S+](=O)([O-])CCC(F)(F)F)CC12 (stereo not given) | – | inactive: -2.08% [at 6.33 µM]
37 | C=CCn1c(O)c(C2=c3ccccc3=NC2=O)sc1=Nc1ccc(O)cc1 | inconclusive: 44.7 µM [inhibitor, partial curve, poor fit] | –
38 | CCC(=NCCc1c(C)[nH]c2ccc(OC(F)(F)F)cc12)C1=C(O)CC(c2ccccc2)CC1=O (stereo not given) | – | inactive: -11.1%
39 | CCOC(=O)C1CCCN(C(=O)C(CCSC)NC(=O)COc2ccccc2)C1 (stereo not given) | inconclusive: 141 µM [inhibitor, single point] | –
40 | Cc1ccc(C2C(C(=O)c3cccs3)=C(O)C(=O)N2c2ccc(S(N)(=O)=O)cc2)cc1 (stereo not given) | inconclusive: 39.8 µM [inhibitor, partial curve, poor fit] | –
41 | COc1ccc(Nc2nc3ccc(C)cc3n3cnnc23)cc1Cl | inconclusive: 112 µM [inhibitor, single point] | –
42 | CC(=O)N1Cc2[nH]c3ccccc3c2CC1C(=O)O (stereo not given) | inconclusive: 0.355 µM [inhibitor, full curve, poor fit] | –
43 | O=C(Nc1cccc2ncccc12)c1ccc2ccccc2c1 | active: 11.2 µM | –
44 | CC1(C)C2([N+](=O)[O-])CN3CC1([N+](=O)[O-])CN(C2)C3c1ccc(O)c(O)c1 (stereo not given) | inconclusive: 126 µM [inhibitor, single point] | –
45 | N#Cc1c(N)n[nH]c1CCCNC(=O)c1cn(Cc2ccccc2)nc1-c1ccccc1 | inconclusive: 0.1 µM [inhibitor, full curve, poor fit] | –
46 | O=C1Nc2ccc(Br)cc2/C1=N/N=C/C1=C(N2CCOCC2)C(=C\c2ccccc2)/CC1 | inconclusive: 50.1 µM [inhibitor, partial curve, poor fit] | –
47 | O=C1ON=C(c2ccc(Cl)cc2)/C1=C/c1ccc(O)cc1 | active: 31.6 µM | –
48 | O=S(=O)(c1cccc(F)c1)N1CCN(Cc2cccc3cccnc23)CC1 | – | inactive: -13.1%

Row | SMILES | Potency | activity change, negative = inhibition
49 | Cc1cc(C(=O)COc2ncnc3ccccc23)c(C)n1C(C)C | – | inactive: -3.6%
50 | CN[C@@H]1[C@@H](O)[C@@H](O[C@@H]2[C@@H](O)[C@H](O[C@H]3O[C@H](CN)[C@@H](O)[C@H](O)[C@@H]3O)[C@@H](N)C[C@@H]2NC(=O)[C@@H](O)CN)OC[C@]1(C)O | inconclusive: 12.2 µM [inhibitor, single point] | –
51 | Cc1cc2c([nH]c3ccccc32)c(C)n1 | inconclusive: 39.8 µM [inhibitor, partial curve, poor fit] | –
52 | O=C(NCc1cccs1)c1nc(-c2ccc(F)cc2)c2cnccn12 | inconclusive: 12.6 µM [inhibitor, full curve] | –
53 | C[C@H]1CCC[C@]2(CC(=O)c3cc(F)ccc3O2)C1 | inconclusive: 126 µM [inhibitor, single point] | –
54 | COc1ccc(-c2nc(C)nc3c2CN([S+](=O)([O-])c2cccc(OC)c2)CC3)cc1 | – | inactive: 1.62% [at 6.33 µM]
55 | COc1cc(C)c(NC(=O)c2ccc3c(c2)NC(=O)CCS3)cc1OC | – | inactive: -29.7%
56 | Cc1ccc(NC(=O)CCC(=O)NNC(=O)NC2CCCCC2)c(C)c1 | – | inactive: 5.33%
57 | COc1ccc(C(=O)NCCc2ccccc2F)cc1OC1CCN(C(C)=O)CC1 | inconclusive: 112 µM [inhibitor, single point] | –
58 | CN=C1c2c(-c3ccccc3)c3cc(OC)ccc3n2CCN1C | – | inactive: -17.8%
59 | N#Cc1cccc(Oc2ccc(C(=O)OCC(=O)c3ccccc3)cc2)c1C#N | – | inactive: 1.68%
60 | Oc1c(Br)cc(Br)cc1C=NCc1ccc(F)cc1 | active: 39.8 µM | –
61 | CC(C)OC(=O)c1sc2nc3c(cc2c1N)C(=O)CCC3 | – | inconclusive: -51.3% [inhibitor]
62 | Cc1cccc(NC(=O)Cn2cccc2-c2nc(-c3ccc4c(c3)OCO4)no2)c1 | inconclusive: 3.98 µM [inhibitor, full curve] | –
63 | CCN(CC)S(=O)(=O)c1ccc(N2CCCC2)c(NC(=O)Cc2cc(OC)c(OC)c(OC)c2)c1 | – | inactive: -18.8%
64 | CN(C)S(=O)(=O)c1ccc(Cl)c(NC(=O)COC(=O)C2CCCO2)c1 (stereo not given) | inconclusive: 4.47 µM [inhibitor, partial curve, poor fit] | –
65 | Cc1ccc2nc(NC(=O)c3ccco3)sc2c1 | – | inactive: -8.02%
66 | COc1cccc(-c2cncnc2Nc2ccccc2)c1 | active: 39.8 µM | –
67 | CC(=O)c1c(C(C)=O)c(C)n(NC(=O)c2ccccc2O)c1C | – | inactive: 24.7%
68 | C=CCN1C[C@@]2(C(=O)O)CN(c3nccc4ccccc34)C[C@H]2C1=O | inconclusive: 17.8 µM [inhibitor, full curve, poor fit] | –
69 | CC(C)C1=CC2=CC[C@@H]3[C@](C)(CCC[C@@]3(C)C(=O)O)[C@H]2CC1 | – | inactive: 45.2% [at 176 µM]
70 | c1ccc(CNc2ccnc(-c3ccoc3)n2)cc1 | inconclusive: 50.1 µM [inhibitor, partial curve, poor fit] | –
